Results from PubChem BioAssay AID540275 (National Center for Advancing Translational Sciences (NCATS), 2011).
The campaign covered roughly 320,000 compounds. About 620 (0.19%) were called active. Inconclusive results, whose numbers are uncertain, are shown with a selection of clear calls. Rule as the data show it: active = activation above about 80%; inconclusive = between about 30% and that limit; inactive = weaker than that.

Amino acid sequences for entries named in this document (tags omitted).
UniProt Q8NER1, whole entry, looked up: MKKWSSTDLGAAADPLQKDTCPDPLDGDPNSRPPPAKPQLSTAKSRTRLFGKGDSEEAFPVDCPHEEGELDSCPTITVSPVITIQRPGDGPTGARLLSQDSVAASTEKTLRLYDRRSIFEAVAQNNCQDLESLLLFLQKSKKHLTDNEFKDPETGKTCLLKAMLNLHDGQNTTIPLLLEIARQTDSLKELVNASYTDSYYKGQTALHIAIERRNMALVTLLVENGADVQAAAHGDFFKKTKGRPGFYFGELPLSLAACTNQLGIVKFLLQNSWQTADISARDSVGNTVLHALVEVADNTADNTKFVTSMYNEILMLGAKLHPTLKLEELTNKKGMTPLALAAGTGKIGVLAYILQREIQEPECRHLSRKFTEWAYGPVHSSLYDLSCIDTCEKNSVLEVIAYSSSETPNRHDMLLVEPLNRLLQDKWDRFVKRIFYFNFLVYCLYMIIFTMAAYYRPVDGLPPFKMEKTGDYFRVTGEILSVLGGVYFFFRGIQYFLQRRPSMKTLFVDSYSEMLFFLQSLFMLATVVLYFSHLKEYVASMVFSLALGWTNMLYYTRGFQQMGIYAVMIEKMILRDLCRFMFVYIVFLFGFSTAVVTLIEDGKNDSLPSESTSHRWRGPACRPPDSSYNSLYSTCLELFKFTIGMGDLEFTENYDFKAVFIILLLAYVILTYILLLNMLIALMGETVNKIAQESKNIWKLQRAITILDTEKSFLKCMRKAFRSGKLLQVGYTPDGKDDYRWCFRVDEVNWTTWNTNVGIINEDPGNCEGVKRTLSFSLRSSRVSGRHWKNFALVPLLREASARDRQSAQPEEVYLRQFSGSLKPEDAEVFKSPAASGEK

target: Transient receptor potential cation channel subfamily V member 1 (Homo sapiens) (UniProt Q8NER1); experiment: HTS Assay for Compounds that Act as Agonists of the Vanilloid Receptor 1; conditions: TRPV1-expressing cells, Fluo-8 calcium influx, agonist mode; at 8.33 µM, stronger effect = higher value; also: 0% is about no effect
Outline: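 Cells expressing TRPV1 were dye-loaded with Fluo-8 and read kinetically: 10 s baseline, 3 min after compound (agonist portion), then 2 min after EC20 capsaicin (allosteric enhancer portion). Calcium-bound dye fluorescence at 480/520 nm.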

Row | Compound | activation
1 | O=P1(c2ccccc2)C=Cn2c1cc1c2CCCC1 (stereo not given) | inactive: 2.34%
2 | COC(=O)C1=CN(C2CCCCC2)C=C(C(=O)OC)C1c1ccc2c(c1)OCO2 | inconclusive: 37.2%
3 | CCOc1ccccc1C(=O)NCC(=O)N1CCN(Cc2ccc3c(c2)OCO3)CC1 | inconclusive: 38.8%
4 | Clc1cccc(CSc2nc3ccncc3[nH]2)c1 | inactive: 20.1%
5 | NC(=O)NCCN1CCN(c2ncc(C(F)(F)F)cc2Cl)CC1 | inconclusive: 34.3%
6 | Cc1ccc(NS(=O)(=O)c2ccc3[nH]c(=O)oc3c2)cc1Cl | inactive: 5.72%
7 | O=C(CSc1nnc2sc3ccccc3n12)N1CCN(c2ccccc2)CC1 | inactive: -3.1%
8 | Cc1nn(-c2ccccc2)c(Cl)c1/C=N/NC(=O)CCNc1n[nH]c(=O)[nH]c1=O | inactive: 2.3%
9 | O=C(N/N=C/c1sc(N2CCCCC2)nc1-c1cccs1)C1CC1 | inconclusive: 34.9%
10 | CC(NC(=O)C1CCN(S(=O)(=O)c2cccs2)CC1)c1cccc(Cl)c1 (stereo not given) | inconclusive: 41.5%
11 | Cc1oc(-c2ccccc2F)nc1CSCC(=O)NC1CCC(C)CC1 (stereo not given) | inconclusive: 33.6%
12 | CCOc1ccc(-c2nnc3ccc(SCC(=O)Nc4nc5ccccc5s4)nn23)cc1 | inactive: -2.82%
13 | CCO[C@H]1OC(C(=O)NC2CC2)=C[C@@H](c2ccccc2)[C@@H]1CCCO | inactive: -3.27%
14 | O=C(CSc1nc2ccc(Cl)cc2[nH]1)NCCc1ccc(Cl)cc1 | inconclusive: 57.1%
15 | CN(C)/C=N/c1c(C(=O)NCc2ccccc2)nnn1Cc1ccccc1 | inconclusive: 32.8%
16 | Cc1ccc(S(=O)(=O)NCC(=O)OCc2csc(-c3ccccc3)n2)cc1 | inactive: 9.49%
17 | O=C(N/N=C/c1cccc(C(F)(F)F)c1)c1ccc(O)cc1 | inconclusive: 65.1%
18 | CCc1ccc(Nc2nc(N3CCOCC3)nc(N3CCOCC3)n2)cc1 | inactive: -2.57%
19 | O=[N+]([O-])c1cc(S(=O)(=O)C(F)(F)F)ccc1Sc1nc2ccccc2[nH]1 | inconclusive: 31.2%
20 | N#Cc1c(SCC(=O)O)nc(-c2ccccc2)c2c1CCCC2 | inactive: 1.75%
21 | O=C(c1ccco1)N(CCCN1CCOCC1)c1nc(-c2ccc(F)cc2)cs1 | inconclusive: 30.8%
22 | COc1ccccc1NC(=S)N1CCN(c2ccccc2F)CC1 | inactive: 0.144%
23 | CC(C)CNc1ncnc2c1cnn2Cc1ccccc1Cl | inconclusive: 39.3%

Row | Compound | activation
24 | O=C(CCC(F)(F)F)N1CCC(CO)(CCc2ccccc2)CC1 | inconclusive: 42.4%
25 | Clc1ccc2nnc(Cl)n2n1 | inactive: -2.07%
26 | CCOC(=O)C1(Cc2ccccc2Cl)CCN(S(=O)(=O)N(C)C)CC1 | inconclusive: 33.8%
27 | C=CCC1=C/C(=C\c2c(N)n3nc(CC(=O)N4CCOCC4)sc3nc2=O)C=C(OC)C1=O | inconclusive: 33.2%
28 | O=C(CSc1ccccc1)Nc1ccc2c(c1)C(=O)NC2=O | inconclusive: 36.3%
29 | Cc1ccc(-c2c[n+](Cc3ccc(Cl)c(Cl)c3)c3n2CCC3)cc1 | inactive: -0.275%
30 | CC(C)(C)c1ccc(OCC(=O)N2CCN(C=O)CC2)cc1 | inconclusive: 38%
31 | O=C1C=C(c2ccc3c(c2)OCO3)C[C@@H](c2ccc(F)cc2)C1 | inconclusive: 34%
32 | Cc1ccc(SCC(=O)OC(C)C(=O)Nc2ccc(S(N)(=O)=O)cc2)cc1C (stereo not given) | inconclusive: 48.8%
33 | COc1ccc(-c2csc(C3=C(O)CN(CCCN4CCCC4=O)C3=N)n2)cc1OC | inactive: -8.99%
34 | Cc1ccc(-n2c(SCC(=O)NCc3ccco3)nc3sc4c(c3c2=O)CC(C)(C)SC4)cc1 | inconclusive: 36.5%
35 | O=C(NCCc1cccs1)c1ccc(Cl)c(Cl)c1 | inconclusive: 52.3%
36 | COc1ccc(NC(=S)N(CCCN2CCC(C)CC2)Cc2cccs2)cc1Cl | inactive: 0.73%
37 | CC(C)CC(COCc1ccc(Cl)cc1)N1CCN(C(=O)c2ccc(C(F)(F)F)cc2)CCC1=O (stereo not given) | inconclusive: 46.1%
38 | Cc1cc(N2CCN(C)CC2)ccc1NC(=O)c1cccc(S(=O)(=O)N2CCc3ccccc3C2)c1 | inactive: -3.06%
39 | CCCC(=O)N(Cc1cc(=O)[nH]c2ccccc12)c1ccccc1C | inactive: -3.65%
40 | O=C(c1cc(-c2ccccc2)nc2ccccc12)N1CCCc2ccccc21 | inactive: 20.5%
41 | Cc1ccc(C(=O)Nc2ccc(Cc3ccncc3)cc2)cc1[N+](=O)[O-] | inconclusive: 37.1%
42 | CC(C)(C)c1ccc(-c2nc(-c3ccncc3)no2)cc1 | inconclusive: 32.4%
43 | Cc1cccc(CSc2nc3c(cc2C#N)CCC3)c1 | inactive: 1.43%
44 | Cc1ccnc(N/N=C/c2ccccc2)n1 | inactive: -4.71%
45 | O=C(NCc1ccccc1)c1noc2c1CCCC2 | inconclusive: 61.8%
46 | O=S(=O)(c1cnc[nH]1)N1CCN(C(c2ccc(F)cc2)c2ccc(F)cc2)CC1 | inconclusive: 44%

Structures from the list above that have a furan ring, fused or not (2):
Row | Compound | activation
21 | O=C(c1ccco1)N(CCCN1CCOCC1)c1nc(-c2ccc(F)cc2)cs1 | inconclusive: 30.8%
34 | Cc1ccc(-n2c(SCC(=O)NCc3ccco3)nc3sc4c(c3c2=O)CC(C)(C)SC4)cc1 | inconclusive: 36.5%

Next records:

Row | Compound | activation
47 | CCOc1ccccc1C(=O)Nc1cc2c(cc1N1CCCC1)n(CC)c(=O)n2CC | inconclusive: 35.7%
48 | CCOC(=O)c1nc2sc3c(c2c(=O)n1C(C)C(=O)OCC)CCCC3 (stereo not given) | active: 80.2%
49 | CCc1cccc2c(SC(C)C(=O)NCC3CCCO3)nc(-c3ccccc3)nc12 (stereo not given) | inconclusive: 42.6%
50 | COC(=O)/C(=C\c1cccnc1)NC(=O)c1ccc(OCc2ccccc2)cc1 | inconclusive: 37.2%
51 | CC1(C)CC2CC(C)(CN2C(=O)COC(=O)c2ccccc2C(F)(F)F)C1 (stereo not given) | inconclusive: 33.6%
52 | CCn1c2ccccc2c2nc3cc(S(=O)(=O)N4CCOCC4)ccc3nc21 | inconclusive: 31.7%
53 | O=S(=O)(NCCCN1CCOCC1)c1ccc2ccccc2c1 | inconclusive: 30.1%
54 | C=C(C)COc1ccc(-c2n[nH]c(C)c2-c2ccc(OC)cc2)c(O)c1 | inactive: 14.1%
55 | Cc1[nH]n2c(=O)c(C#N)c(-c3ccccc3)nc2c1-c1ccccc1 | inactive: 1.25%
56 | CC(=O)Nc1ccc(Nc2c3c4c(cccc4n(C)c2=O)C(=O)c2ccccc2-3)cc1 | inactive: 6.45%
57 | NC(=O)c1sc2cc(C(F)(F)F)cnc2c1-c1cccs1 | inactive: -3.08%
58 | C/C(=N/NC(=O)c1ccc2c(c1)OCO2)c1ccc(Br)s1 | inconclusive: 42.1%
59 | O=C1c2ccccc2C(=O)N1CCCSc1nc2ccccc2o1 | inconclusive: 32.1%
60 | CCOC(=O)N1CCC(n2c(SCC(=O)NCc3ccccc3)nc3ccccc3c2=O)CC1 | inconclusive: 47.4%
61 | Cc1oc2c(c(C)cc3oc(=O)c(CC(=O)N[C@@H](CC(C)C)C(=O)O)c(C)c32)c1C | inconclusive: 43.7%
62 | COc1ccc(C)cc1S(=O)(=O)NC(C)C(=O)NC1CC1 (stereo not given) | inactive: -3.58%
63 | O=C(/C=C/c1ccccc1Cl)Nc1ccncc1 | inconclusive: 51.4%
64 | COc1ccc(S(=O)(=O)N2CCN(C(=O)NCc3ccccc3)CC2)cc1 | inconclusive: 65.9%
65 | COc1cccc(CNC(=O)c2n[nH]c3ccccc23)c1 | inconclusive: 39.2%
66 | O=c1c2ccccc2ncn1Cc1ccc(Cl)cc1 | inactive: -0.132%
67 | CCOc1nc(NC2CCCC2)nc(N2CCC(C)CC2)n1 | inconclusive: 40.9%
68 | Cc1ccc(C2(CCNS(=O)(=O)c3ccc(C)cc3)CCOC(C(C)C)C2)cc1 (stereo not given) | inconclusive: 40.9%
69 | Cc1cccc(-c2nc(C#N)c(N3CCCCC3)o2)c1 | inconclusive: 42.6%

As entered above.
Under activation, `COc1ccc(S(=O)(=O)N2CCN(C(=O)NCc3ccccc3)CC2)cc1` has inconclusive: 65.9%
Under activation, `Cc1ccc(C2(CCNS(=O)(=O)c3ccc(C)cc3)CCOC(C(C)C)C2)cc1` (stereo not given) has inconclusive: 40.9%
Under activation, `C/C(=N/NC(=O)c1ccc2c(c1)OCO2)c1ccc(Br)s1` has inconclusive: 42.1%

Additional records follow:

Row | Compound | activation
70 | COc1ccc(/C=C/C(=O)NC(C)C)cc1Br | inconclusive: 57.1%
71 | Cn1ncc(Cl)c1C(=O)N1CCN(c2ccc(Cl)c(Cl)c2)CC1 | inactive: -2.66%
72 | CC(=O)c1sc(N/N=C2\CC3CC2C(C)C3(C)C)nc1C (stereo not given) | inactive: -1.81%
73 | CCOc1ccc(NC(=O)CSc2ccc3nnc(-c4cccnc4)n3n2)cc1 | inactive: -6.63%
74 | Cc1ccc(C(=O)/C=C/Nc2ccccc2C(N)=O)cc1 | inactive: -0.941%
75 | FC(F)(F)c1cccc(CNC(=S)Nc2ccccc2)c1 | inconclusive: 73.1%
76 | COc1ccc(/C=C/C(=O)OCC(=O)Nc2ccc3[nH]c(=O)[nH]c3c2)cc1OC | inactive: -1.66%
77 | COC(C[C@H](O)C[C@H](O)[C@H](C)OCc1ccccc1)OC | inconclusive: 41.4%
78 | O=C(Nc1ccc2c(c1)OCO2)c1cc(Cl)ccn1 | inconclusive: 49.2%
79 | Cc1cc(N)ccc1N1CCCC1 | inactive: -2.68%
80 | Cc1ccc(CSCCC(=O)NCCC2=CCCCC2)cc1 | inconclusive: 45.4%
81 | COc1cccc(C2=CC(=O)C[C@H](c3ccc(F)cc3)C2)c1OC | inconclusive: 43.8%
82 | CC(C)(C)SCCNC(=O)CN(c1ccccc1)S(=O)(=O)c1ccc(F)cc1 | inconclusive: 35.3%
83 | O=C(NN1C(=O)c2ccccc2NC1c1ccc([N+](=O)[O-])o1)c1ccc([N+](=O)[O-])cc1 (stereo not given) | inactive: 3.45%
84 | COC(=O)c1cc(Cl)c(NC(=O)/C=C/c2ccc(OC)c(OC)c2)cc1OC | inactive: -8.12%
85 | CC1=C(OC(=O)C(C)(C)C)C(C)(C)C(c2ccccc2)OC1=O (stereo not given) | inconclusive: 39.1%
86 | Cc1ccc2nc(NC(=O)C3CCN(S(=O)(=O)c4cccs4)CC3)sc2c1 | inactive: 4.77%
87 | NC(=O)c1ccsc1NC(=O)COC(=O)c1ccc([N+](=O)[O-])o1 | inactive: 1.84%
88 | C/C(=N\NC(=S)NCCc1ccccc1)c1cccs1 | inconclusive: 32.6%
89 | CCOc1ccc(S(=O)(=O)N(CC(=O)NC2CCCCC2C)Cc2ccco2)cc1 (stereo not given) | inconclusive: 68.6%
90 | COc1cccc(-c2cc(C(=O)NCc3ccco3)no2)c1 | inconclusive: 36.2%
